Measurements taken from article PMC11962650.
These are yes or no findings as the source states them, for the method shown. In cells and extracts the contact can be indirect.

Sequences of proteins named here, by UniProt entry; tags and fusion partners are left off.
UniProt Q86U44: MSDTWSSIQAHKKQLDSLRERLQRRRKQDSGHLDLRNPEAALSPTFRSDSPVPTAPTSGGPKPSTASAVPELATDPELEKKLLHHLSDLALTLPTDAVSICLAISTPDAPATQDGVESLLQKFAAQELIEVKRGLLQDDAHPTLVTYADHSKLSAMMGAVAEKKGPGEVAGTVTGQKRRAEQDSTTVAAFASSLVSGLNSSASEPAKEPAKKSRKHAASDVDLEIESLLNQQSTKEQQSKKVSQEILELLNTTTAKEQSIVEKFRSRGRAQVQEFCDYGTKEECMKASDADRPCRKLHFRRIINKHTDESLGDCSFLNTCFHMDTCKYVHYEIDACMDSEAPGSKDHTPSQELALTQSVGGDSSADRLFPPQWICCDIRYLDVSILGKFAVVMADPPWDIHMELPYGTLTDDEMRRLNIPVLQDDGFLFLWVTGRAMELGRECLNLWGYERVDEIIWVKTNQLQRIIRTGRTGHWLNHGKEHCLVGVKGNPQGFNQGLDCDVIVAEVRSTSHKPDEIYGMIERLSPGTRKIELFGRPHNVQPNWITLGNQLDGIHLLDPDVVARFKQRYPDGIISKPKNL

Target: methyltransferase‐like protein 3 (METTL3) (human) (UniProt Q86U44)
Assay: co-IP; protein extracted in RIPA lysis buffer; co-IP with a Magna RIP RNA-Binding Protein Immunoprecipitation Kit; cells and precipitating antibody not stated

- binding: no binding
B1: PGC‐1α (protein, UniProt Q9UBK2-1 1-798)
chain: MAWDMCNQDSESVWSDIECAALVGEDQPLCPDLPELDLSELDVNDLDTDSFLGGLKWCSDQSEIISNQYNNEPSNIFEKIDEENEANLLAVLTETLDSLPVDEDGLPSFDALTDGDVTTDNEASPSSMPDGTPPPQEAEEPSLLKKLLLAPANTQLSYNECSGLSTQNHANHNHRIRTNPAIVKTENSWSNKAKSICQQQKPQRRPCSELLKYLTTNDDPPHTKPTENRNSSRDKCTSKKKSHTQSQSQHLQAKPTTLSLPLTPESPNDPKGSPFENKTIERTLSVELSGTAGLTPPTTPPHKANQDNPFRASPKLKSSCKTVVPPPSKKPRYSESSGTQGNNSTKKGPEQSELYAQLSKSSVLTGGHEERKTKRPSLRLFGDHDYCQSINSKTEILINISQELQDSRQLENKDVSSDWQGQICSSTDSDQCYLRETLEASKQVSPCSTRKQLQDQEIRAELNKHFGHPSQAVFDDEADKTGELRDSDFSNEQFSKLPMFINSGLAMDGLFDDSEDESDKLSYPWDGTQSYSLFNVSPSCSSFNSPCRDSVSPPKSLFSQRPQRMRSRSRSFSRHRSCSRSPYSRSRSRSPGSRSSSRSCYYYESSHYRHRTHRNSPLYVRSRSRSPYSRRPRYDSYEEYQHERLKREEYRREYEKRESERAKQRERQRQKAIEERRVIYVGKIRPDTTRTELRDRFEVFGEIEECTVNLRDDGDSYGFITYRYTCDAFAALENGYTLRRSNETDFELYFCGRKQFFKSNYADLDSNSDDFDPASTKSKYDSLDFDSLLKEAQRSLRR
